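A counterscreen of light output from a stable CMV-driven luciferase line in HEK293 cells, measured one day after compound addition.
Percent change in reporter signal versus neutral control wells at the top tested concentration; more negative values mean stronger inhibition.
Inconclusive means the independent runs disagreed, the fit was flat at 30 to 70% inhibition, or the curve fit was poor.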

Values are in %.
Every entry below has the call inconclusive.
These entries are mostly ones the record files as inconclusive; other results of the assay are not listed here.

| # | structure | condition | activity change (%) |
|---|---|---|---|
| 1 | `CN=c1scc(-c2ccccc2F)n1/N=C/c1ccc[nH]1` | at 35 µM (top of the series) | -30.43 |
| 2 | `CC(N)C(=O)NC1C2C(=C(O)CC(O)C2O)C(=O)OC1(C)C(Cl)Cl` (stereo unspecified) | at 35 µM (top of the series) | -73.47 |
| 3 | `COc1ccc(S(=O)(=O)N(C)C[C@@H]2Oc3ccc(NC(=O)Nc4ccc(C(F)(F)F)cc4)cc3CC(=O)N([C@H](C)CO)C[C@@H]2C)cc1` | at 30 µM (top of the series) | -47.18 |
| 4 | `COc1ccc(/C=C/C(=O)c2cc(F)ccc2OC(=O)c2ccccc2C)cc1OC` | at 35 µM (top of the series) | -48.68 |
| 5 | `N#Cc1c(N)n(C2OC(CO)C(O)C2O)c2ncnc(N)c12` (stereo unspecified) | at 35 µM (top of the series) | -46.39 |
| 6 | `C=Cc1cc(OC)c2c(c1)c(=O)oc1c2cc(OC)c2c(O)ccc(C3OC(C)C(O)C(C)(O)C3O)c21` (stereo unspecified) | at 35 µM (top of the series) | -57.9 |
| 7 | `COc1ccccc1NC1=Nc2cccc3cccc1c23` | at 35 µM (top of the series) | 9.7 |
| 8 | `COC1C(O)C(C)OC(OC2CCC3(C)C(CCC4C3C(O)CC3(C)C(C5=CC(=O)OC5)CCC43O)C2)C1O` (stereo unspecified) | at 35 µM (top of the series) | -86.12 |
| 9 | `COc1cc(C2c3cc4c(c(O)c3CC3COC(=O)C32)OCO4)cc(OC)c1OC` (stereo unspecified) | at 35 µM (top of the series) | -44.38 |
| 10 | `O=[N+]([O-])c1cccnc1S(=O)(=O)c1ccccc1` | at 35 µM (top of the series) | 8.419 |
| 11 | `COc1cc2c(c(OC)c1OC)-c1ccc(SC)c(=O)cc1C(NC=O)CC2` (stereo unspecified) | at 35 µM (top of the series) | 213.5 |
| 12 | `OC[C@H]1O[C@@H](n2cnc3c(NCc4ccco4)ncnc32)[C@H](O)[C@@H]1O` | at 35 µM (top of the series) | -54.14 |
| 13 | `C[C@@H]1CN([C@@H](C)CO)C(=O)Cc2cc(NC(=O)Nc3ccccc3)ccc2O[C@H]1CN(C)Cc1ccc(Oc2ccccc2)cc1` | at 35 µM (top of the series) | -50.83 |
| 14 | `O=C1NC2C(O)C(O)C(O)C(O)C2c2cc3c(c(O)c21)OCO3` (stereo unspecified) | at 35 µM (top of the series) | -69.63 |
| 15 | `Cc1nc(-c2ccc(NC(=O)c3ccco3)cc2)cs1` | at 35 µM (top of the series) | -53.85 |
| 16 | `COc1cc2c(c(OC)c1OC)-c1ccc(OC)c(=O)cc1[C@@H](NC(C)=O)CC2` | at 35 µM (top of the series) | -53.25 |
| 17 | `O=C(C1CC1)N1C[C@@H]2N[C@H](C1)C2c1ccc(-c2ccccc2F)cc1` (stereo partly specified) | at 35 µM (top of the series) | -70.97 |
| 18 | `C[C@@H]1O[C@@H](O[C@@H]2C=C3CC[C@@H]4C(CC[C@]5(C)[C@@H](c6ccc(=O)oc6)CC[C@]45O)[C@@]3(C)CC2)[C@H](O)[C@H](O)[C@H]1O` (stereo partly specified) | at 35 µM (top of the series) | -99.61 |
| 19 | `O=c1[nH]c(-c2ccccn2)nc2sc(-c3ccccc3)cc12` | at 35 µM (top of the series) | 11.03 |
| 20 | `C[C@@H]1CN([C@@H](C)CO)C(=O)Cc2cc(NC(=O)NC3CCCCC3)ccc2O[C@H]1CN(C)Cc1ccc(-c2ccccc2)cc1` | at 35 µM (top of the series) | -39.94 |
| 21 | `NC(=O)c1cn(C2OC(CO)C(O)C2O)c2ncnc(N)c12` (stereo unspecified) | at 35 µM (top of the series) | -81.12 |
| 22 | `COc1cccc(-c2ccc3c(c2)[C@H]2[C@H](CCN2C(=O)c2ccccc2F)[C@H](CO)N3C)c1` | at 35 µM (top of the series) | -30.73 |
| 23 | `Cn1c(CCN2CCCC2)nc2cc(NS(=O)(=O)c3ccc(Cl)cc3)ccc21` | at 35 µM (top of the series) | 0.773 |
| 24 | `CC[C@@]1(O)C(=O)OCc2c1cc1n(c2=O)Cc2cc3c(N)cccc3nc2-1` | at 35 µM (top of the series) | 6.761 |
| 25 | `O=C(COC(=O)/C(=C/c1cccs1)c1cccs1)NC(c1ccccc1)c1ccccc1` | at 35 µM (top of the series) | 13.08 |
| 26 | `Cc1ccc(-n2nc(C)c(NC(=O)CCl)c2C)cc1C` | at 16 µM (top of the series) | -43.96 |
| 27 | `COc1cccc(C#Cc2ccc([C@H]3[C@@H](CO)N(C(=O)C4CCCCC4)[C@H]3C#N)cc2)c1` | at 35 µM (top of the series) | -10.29 |
| 28 | `CC(C)CC#Cc1ccc2c(c1)O[C@@H](CN(C)S(=O)(=O)c1ccc(F)cc1)[C@@H](C)CN([C@@H](C)CO)S2(=O)=O` | at 35 µM (top of the series) | -18 |
| 29 | `C[C@@H]1CN([C@H](C)CO)C(=O)c2cc(NS(=O)(=O)c3ccc(Cl)cc3)ccc2O[C@@H](C)CCCCO[C@H]1CN(C)S(=O)(=O)c1ccc(Cl)cc1` | at 35 µM (top of the series) | -48.94 |
| 30 | `Cc1ccc(C(=O)N/C(=C\c2ccc(-c3ccc(Br)cc3)o2)C(=O)NCCCN(C)C)cc1` | at 35 µM (top of the series) | 17.72 |
| 31 | `COc1ccccc1C#Cc1ccc([C@H]2[C@H](C#N)N(C(=O)C3CCCC3)[C@H]2CO)cc1` | at 35 µM (top of the series) | -52.22 |
| 32 | `Cc1noc(C)c1S(=O)(=O)Nc1ccc2c(c1)C(=O)N([C@@H](C)CO)C[C@H](C)[C@@H](CN(C)C(=O)Nc1ccc(C(F)(F)F)cc1)OCCCC[C@H](C)O2` | at 35 µM (top of the series) | -24.35 |
| 33 | `C[C@H](CO)N1C[C@H](C)[C@H](CN(C)Cc2ccc(C(=O)Nc3ccccc3N)cc2)Oc2ccc(N(C)C)cc2C1=O` | at 35 µM (top of the series) | 74.45 |
| 34 | `CCC(=O)OCCNc1cc(Sc2nccn2C)c2nonc2c1[N+](=O)[O-]` | at 35 µM (top of the series) | -15.29 |
| 35 | `COc1cc(-c2cnc3c(NC=O)cc(-c4cccc(NC(C)=O)c4)cn23)cc(OC)c1OC` | at 35 µM (top of the series) | -36.78 |
| 36 | `O=C(CSc1nc2ccccc2s1)NCCOc1ccccc1` | at 35 µM (top of the series) | -107.9 |
| 37 | `N#C[C@H]1[C@H](c2ccc(C#CC3CCCC3)cc2)[C@@H](CO)N1C(=O)Nc1ccc(F)cc1` | at 35 µM (top of the series) | -39.13 |
| 38 | `COc1ccc(C2Nc3ccccc3C(=O)N2c2ccc(F)cc2)cc1CSc1ccccn1` (stereo unspecified) | at 35 µM (top of the series) | 0.833 |
| 39 | `CCC1CN2CCc3cc(OC)c(OC)cc3C2CC1CC1NCCc2c1[nH]c1ccc(O)cc21` (stereo unspecified) | at 35 µM (top of the series) | -76.3 |
| 40 | `COc1ccc2c(C)nc(Nc3nc(-c4ccccc4)cc(=O)[nH]3)nc2c1` | at 35 µM (top of the series) | -8.09 |

Once more, the final 2:

structure	condition	activity change (%)
CCC1CN2CCc3cc(OC)c(OC)cc3C2CC1CC1NCCc2c1[nH]c1ccc(O)cc21 (stereo unspecified)	at 35 µM (top of the series)	-76.3
COc1ccc2c(C)nc(Nc3nc(-c4ccccc4)cc(=O)[nH]3)nc2c1	at 35 µM (top of the series)	-8.09

From PubChem BioAssay record AID743020 (Broad Institute, 2013).